Patent publication US9193777B2 (Mayo Foundation for Medical Education and Research, priority 2009, dated 2015)

Test: peptide made by a vendor
Details: whole synthesis

Substance: Ac-CYRITAREDKQGWA-OH
- final HPLC purity: 96%
